This note sets out measurements from the supplement of paper PMC12067093, “Discovery and optimisation of a covalent ligand for TRIM25 and its application to targeted protein ubiquitination” (Chemical Science, 2025).

By UniProt entry, the sequences of proteins in these tests, tags left out. Where a name states a change or a piece, a line headed by the entry shows the natural chain unless it says otherwise.
UniProt Q8N1G4: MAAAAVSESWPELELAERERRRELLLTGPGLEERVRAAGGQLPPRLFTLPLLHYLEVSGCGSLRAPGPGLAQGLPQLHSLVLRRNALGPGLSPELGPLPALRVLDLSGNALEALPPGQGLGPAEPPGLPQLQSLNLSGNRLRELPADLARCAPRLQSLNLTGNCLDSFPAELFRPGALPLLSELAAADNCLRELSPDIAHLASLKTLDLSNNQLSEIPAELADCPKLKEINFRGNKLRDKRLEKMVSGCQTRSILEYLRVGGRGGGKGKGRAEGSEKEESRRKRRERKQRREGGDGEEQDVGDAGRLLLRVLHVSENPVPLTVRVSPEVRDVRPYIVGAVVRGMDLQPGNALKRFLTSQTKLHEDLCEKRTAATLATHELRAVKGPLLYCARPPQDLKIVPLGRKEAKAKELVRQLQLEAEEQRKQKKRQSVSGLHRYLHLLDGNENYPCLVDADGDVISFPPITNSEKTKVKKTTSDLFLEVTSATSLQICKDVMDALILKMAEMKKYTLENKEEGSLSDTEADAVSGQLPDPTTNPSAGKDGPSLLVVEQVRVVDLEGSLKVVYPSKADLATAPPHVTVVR
UniProt Q96AG4: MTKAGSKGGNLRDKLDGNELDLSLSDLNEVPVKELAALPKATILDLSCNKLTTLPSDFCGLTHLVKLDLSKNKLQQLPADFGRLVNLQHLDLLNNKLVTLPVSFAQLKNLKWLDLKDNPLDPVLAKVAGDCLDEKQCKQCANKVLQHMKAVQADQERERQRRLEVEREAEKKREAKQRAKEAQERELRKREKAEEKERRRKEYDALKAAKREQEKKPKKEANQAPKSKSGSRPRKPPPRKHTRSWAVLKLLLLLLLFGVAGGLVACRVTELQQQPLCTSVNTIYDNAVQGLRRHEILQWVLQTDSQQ
UniProt Q15048: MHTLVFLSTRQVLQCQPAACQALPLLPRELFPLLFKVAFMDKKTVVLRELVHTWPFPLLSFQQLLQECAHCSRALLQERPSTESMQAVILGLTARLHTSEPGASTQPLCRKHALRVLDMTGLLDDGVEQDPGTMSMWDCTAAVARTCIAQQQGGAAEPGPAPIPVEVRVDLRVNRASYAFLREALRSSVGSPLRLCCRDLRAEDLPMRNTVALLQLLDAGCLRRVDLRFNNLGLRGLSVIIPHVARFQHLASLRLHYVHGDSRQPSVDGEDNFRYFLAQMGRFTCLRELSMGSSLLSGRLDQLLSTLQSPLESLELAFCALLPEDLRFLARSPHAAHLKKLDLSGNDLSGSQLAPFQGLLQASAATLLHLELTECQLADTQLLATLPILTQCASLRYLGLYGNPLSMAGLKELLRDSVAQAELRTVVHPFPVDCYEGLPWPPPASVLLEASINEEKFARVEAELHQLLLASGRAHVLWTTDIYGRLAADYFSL
UniProt Q8WWI1: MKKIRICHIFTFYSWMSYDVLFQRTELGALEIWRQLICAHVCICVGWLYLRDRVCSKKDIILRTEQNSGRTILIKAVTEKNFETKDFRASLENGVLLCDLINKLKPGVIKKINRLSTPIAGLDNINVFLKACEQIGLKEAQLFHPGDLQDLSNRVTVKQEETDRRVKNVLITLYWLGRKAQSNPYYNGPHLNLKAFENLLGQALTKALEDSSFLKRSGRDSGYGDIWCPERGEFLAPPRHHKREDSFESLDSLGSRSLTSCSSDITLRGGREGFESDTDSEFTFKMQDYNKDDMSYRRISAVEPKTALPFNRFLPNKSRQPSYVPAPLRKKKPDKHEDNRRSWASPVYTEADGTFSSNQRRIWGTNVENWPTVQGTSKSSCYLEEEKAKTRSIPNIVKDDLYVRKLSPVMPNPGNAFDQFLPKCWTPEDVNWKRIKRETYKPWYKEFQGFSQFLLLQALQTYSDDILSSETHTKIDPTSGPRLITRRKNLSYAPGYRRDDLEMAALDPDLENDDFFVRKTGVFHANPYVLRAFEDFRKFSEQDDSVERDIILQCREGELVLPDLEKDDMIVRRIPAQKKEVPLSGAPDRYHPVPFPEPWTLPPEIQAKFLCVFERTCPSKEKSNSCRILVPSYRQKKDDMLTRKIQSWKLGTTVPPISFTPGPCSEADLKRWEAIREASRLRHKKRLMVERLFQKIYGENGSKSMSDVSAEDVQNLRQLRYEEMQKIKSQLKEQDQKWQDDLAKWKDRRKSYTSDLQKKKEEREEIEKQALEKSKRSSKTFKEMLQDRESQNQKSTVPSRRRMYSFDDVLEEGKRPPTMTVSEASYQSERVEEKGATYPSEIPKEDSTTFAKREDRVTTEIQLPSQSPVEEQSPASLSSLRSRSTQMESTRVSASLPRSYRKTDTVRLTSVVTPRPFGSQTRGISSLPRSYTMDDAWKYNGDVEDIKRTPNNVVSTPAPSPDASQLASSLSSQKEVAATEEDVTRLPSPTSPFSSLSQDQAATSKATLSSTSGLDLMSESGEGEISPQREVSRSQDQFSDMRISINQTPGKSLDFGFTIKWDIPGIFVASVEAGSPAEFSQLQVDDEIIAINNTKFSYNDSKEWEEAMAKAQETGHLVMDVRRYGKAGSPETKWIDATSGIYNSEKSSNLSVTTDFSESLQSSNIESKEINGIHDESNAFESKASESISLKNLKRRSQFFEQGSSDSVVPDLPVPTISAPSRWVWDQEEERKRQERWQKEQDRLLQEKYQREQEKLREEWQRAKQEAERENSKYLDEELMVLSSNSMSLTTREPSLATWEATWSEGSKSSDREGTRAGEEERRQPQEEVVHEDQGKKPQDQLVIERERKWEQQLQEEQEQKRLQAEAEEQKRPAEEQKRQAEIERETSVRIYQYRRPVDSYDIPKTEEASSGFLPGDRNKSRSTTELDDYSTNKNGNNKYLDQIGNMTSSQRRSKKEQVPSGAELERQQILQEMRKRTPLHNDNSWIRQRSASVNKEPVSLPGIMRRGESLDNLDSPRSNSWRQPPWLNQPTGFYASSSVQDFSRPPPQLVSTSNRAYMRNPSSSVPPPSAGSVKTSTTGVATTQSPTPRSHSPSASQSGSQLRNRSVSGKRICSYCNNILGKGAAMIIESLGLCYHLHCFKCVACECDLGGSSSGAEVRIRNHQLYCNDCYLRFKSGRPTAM
UniProt Q32MZ4: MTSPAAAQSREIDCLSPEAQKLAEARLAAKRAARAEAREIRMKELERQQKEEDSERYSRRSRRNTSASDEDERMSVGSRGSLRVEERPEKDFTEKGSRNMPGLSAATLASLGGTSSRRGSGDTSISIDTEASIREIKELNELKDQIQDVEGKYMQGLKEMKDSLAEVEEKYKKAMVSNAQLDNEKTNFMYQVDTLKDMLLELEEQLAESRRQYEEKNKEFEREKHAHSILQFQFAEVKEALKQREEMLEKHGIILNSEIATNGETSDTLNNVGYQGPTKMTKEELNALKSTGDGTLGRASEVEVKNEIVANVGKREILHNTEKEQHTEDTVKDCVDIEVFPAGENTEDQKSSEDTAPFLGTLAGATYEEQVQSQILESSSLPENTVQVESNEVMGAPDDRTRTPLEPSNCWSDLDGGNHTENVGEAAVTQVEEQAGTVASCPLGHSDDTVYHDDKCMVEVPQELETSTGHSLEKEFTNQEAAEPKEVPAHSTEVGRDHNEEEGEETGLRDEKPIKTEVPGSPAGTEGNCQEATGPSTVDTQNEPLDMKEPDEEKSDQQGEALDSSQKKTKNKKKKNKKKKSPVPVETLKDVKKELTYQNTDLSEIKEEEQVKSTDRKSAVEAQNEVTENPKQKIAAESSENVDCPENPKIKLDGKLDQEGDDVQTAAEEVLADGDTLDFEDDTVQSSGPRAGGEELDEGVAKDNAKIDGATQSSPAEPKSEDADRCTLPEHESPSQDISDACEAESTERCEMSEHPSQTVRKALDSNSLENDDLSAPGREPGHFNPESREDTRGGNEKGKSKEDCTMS
UniProt O95202: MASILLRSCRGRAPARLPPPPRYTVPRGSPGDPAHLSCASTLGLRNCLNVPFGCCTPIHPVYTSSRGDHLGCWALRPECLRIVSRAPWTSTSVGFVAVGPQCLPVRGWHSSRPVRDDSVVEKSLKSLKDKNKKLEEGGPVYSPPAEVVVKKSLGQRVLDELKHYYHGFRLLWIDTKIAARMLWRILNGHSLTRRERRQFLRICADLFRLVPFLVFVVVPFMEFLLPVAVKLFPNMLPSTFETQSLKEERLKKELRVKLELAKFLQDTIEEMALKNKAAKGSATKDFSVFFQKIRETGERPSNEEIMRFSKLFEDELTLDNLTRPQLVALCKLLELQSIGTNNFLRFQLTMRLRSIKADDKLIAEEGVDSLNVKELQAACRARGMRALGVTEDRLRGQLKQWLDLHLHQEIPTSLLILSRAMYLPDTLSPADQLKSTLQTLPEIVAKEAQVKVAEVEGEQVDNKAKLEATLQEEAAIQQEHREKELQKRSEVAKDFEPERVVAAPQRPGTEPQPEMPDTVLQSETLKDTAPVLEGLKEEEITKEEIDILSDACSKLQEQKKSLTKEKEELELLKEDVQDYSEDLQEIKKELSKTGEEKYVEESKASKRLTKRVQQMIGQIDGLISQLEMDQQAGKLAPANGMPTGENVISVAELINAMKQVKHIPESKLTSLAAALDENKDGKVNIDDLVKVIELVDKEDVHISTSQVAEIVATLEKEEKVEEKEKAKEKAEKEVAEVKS
UniProt P48059, whole entry, looked up: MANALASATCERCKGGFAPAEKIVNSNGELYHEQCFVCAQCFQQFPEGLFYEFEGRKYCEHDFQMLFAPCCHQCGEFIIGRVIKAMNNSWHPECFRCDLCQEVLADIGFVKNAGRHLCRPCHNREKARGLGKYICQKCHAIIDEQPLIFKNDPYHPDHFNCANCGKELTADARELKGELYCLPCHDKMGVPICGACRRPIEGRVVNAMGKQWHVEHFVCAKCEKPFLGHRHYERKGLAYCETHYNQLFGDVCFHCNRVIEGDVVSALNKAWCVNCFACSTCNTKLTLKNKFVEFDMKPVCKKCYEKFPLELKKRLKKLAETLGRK
UniProt P20700: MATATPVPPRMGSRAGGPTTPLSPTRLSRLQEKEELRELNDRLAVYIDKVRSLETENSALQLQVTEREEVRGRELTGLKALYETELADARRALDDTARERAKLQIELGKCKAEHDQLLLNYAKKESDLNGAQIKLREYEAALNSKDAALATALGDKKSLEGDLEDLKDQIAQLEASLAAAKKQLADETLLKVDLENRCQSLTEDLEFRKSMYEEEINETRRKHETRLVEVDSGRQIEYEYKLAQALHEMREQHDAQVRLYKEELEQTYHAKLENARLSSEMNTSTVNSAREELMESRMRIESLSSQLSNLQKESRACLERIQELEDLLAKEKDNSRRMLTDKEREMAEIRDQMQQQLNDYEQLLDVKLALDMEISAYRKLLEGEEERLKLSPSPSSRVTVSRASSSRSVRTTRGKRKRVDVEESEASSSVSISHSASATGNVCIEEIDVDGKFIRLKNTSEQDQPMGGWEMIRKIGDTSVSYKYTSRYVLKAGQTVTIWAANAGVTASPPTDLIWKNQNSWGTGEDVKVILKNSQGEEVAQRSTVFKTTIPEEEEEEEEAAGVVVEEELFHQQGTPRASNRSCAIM
UniProt P49916: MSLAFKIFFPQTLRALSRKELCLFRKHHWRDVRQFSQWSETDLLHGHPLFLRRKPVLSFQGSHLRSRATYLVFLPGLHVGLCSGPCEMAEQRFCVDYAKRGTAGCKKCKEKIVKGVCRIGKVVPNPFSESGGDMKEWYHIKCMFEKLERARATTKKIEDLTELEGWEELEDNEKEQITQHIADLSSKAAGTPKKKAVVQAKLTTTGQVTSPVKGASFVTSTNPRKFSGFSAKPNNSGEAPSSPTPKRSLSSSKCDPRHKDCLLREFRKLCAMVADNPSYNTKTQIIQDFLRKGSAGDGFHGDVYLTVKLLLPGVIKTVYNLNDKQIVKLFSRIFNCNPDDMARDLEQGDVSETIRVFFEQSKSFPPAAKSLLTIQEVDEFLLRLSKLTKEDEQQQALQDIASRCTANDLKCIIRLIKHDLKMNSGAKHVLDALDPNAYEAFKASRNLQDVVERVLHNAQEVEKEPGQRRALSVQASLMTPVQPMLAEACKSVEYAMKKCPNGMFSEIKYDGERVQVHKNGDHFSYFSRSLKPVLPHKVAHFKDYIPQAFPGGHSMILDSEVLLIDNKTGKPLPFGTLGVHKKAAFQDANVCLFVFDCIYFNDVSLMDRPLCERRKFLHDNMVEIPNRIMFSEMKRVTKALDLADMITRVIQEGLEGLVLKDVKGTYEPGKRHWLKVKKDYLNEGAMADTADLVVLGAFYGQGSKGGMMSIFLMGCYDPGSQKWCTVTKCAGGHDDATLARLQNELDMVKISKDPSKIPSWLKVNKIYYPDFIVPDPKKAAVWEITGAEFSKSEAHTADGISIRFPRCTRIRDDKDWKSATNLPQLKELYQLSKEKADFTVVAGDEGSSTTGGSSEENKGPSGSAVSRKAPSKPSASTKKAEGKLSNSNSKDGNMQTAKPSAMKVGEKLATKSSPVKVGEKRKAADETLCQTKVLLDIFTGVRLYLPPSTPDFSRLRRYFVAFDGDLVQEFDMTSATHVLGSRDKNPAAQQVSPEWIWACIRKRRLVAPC

Compound in this test: Cc1cc(ccc1-c1ccccc1)C(=O)N1CCCN(CC1)C(=O)CCl [compound 10]
Kind of test: probe-labelled cysteine peptide fold change vs DMSO (competition) (log2 fold change); higher = less target engagement (more negative = stronger competition). As to conditions: THP-1, incubation time: 4 h.

This is one part of the list.
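Note: competitive profiling in live THP-1 cells: cysteine peptides tagged with an iodoacetamide desthiobiotin (IA-DTB) probe, intensity after compound treatment relative to DMSO-treated cells.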

Consider “LRRC8A_Q8IWT6_57_MICLPCK (UniProt Q8IWT6)”, for which the “probe-labelled cysteine peptide fold change” value reads like this: (10 µM) 0.0504; (50 µM) 0.00851.

Consider “LRRC47_Q8N1G4_224_TLDLSNNQLSEIPAELADCPK (UniProt Q8N1G4)”, for which the “probe-labelled cysteine peptide fold change” value came to 0.00243 (10 µM) and 0.024 (50 µM).

Take “LLGL2_Q6P1M3_280_SLVPYGPFPCK (UniProt Q6P1M3)”: the “probe-labelled cysteine peptide fold change” value is -0.15 (10 µM) and 0.0502 (50 µM).

Consider “LRRC59_Q96AG4_277_VTELQQQPLCTSVNTIYDNAVQGLR (UniProt Q96AG4)”, for which the “probe-labelled cysteine peptide fold change” value was -0.306 (10 µM) and 0.0875 (50 µM).

On to “LRPPRC_P42704_863_IHDVLCK (UniProt P42704)”, for which the “probe-labelled cysteine peptide fold change” value was determined as 0.0747 (10 µM) and 0.0539 (50 µM).

For “LILRA2_Q8N149_49_CQGSLQAEEYHLYR (UniProt Q8N149)”, the “probe-labelled cysteine peptide fold change” value was -0.146 (10 µM) and 0.115 (50 µM).

Regarding “LRRC47_Q8N1G4_390_GPLLYCARPPQDLK (UniProt Q8N1G4)”, the “probe-labelled cysteine peptide fold change” value was -0.0714 (10 µM) and -0.133 (50 µM).

As to “LIN9_Q5TKA1_435_RCEEEAQEIVR (UniProt Q5TKA1)”, the “probe-labelled cysteine peptide fold change” value (10 µM) is -0.273 and the “probe-labelled cysteine peptide fold change” value (50 µM) was -0.168.

“LRCH3_Q96II8_740_IGVPQEQLCLPLHILEEK (UniProt Q96II8)”: the “probe-labelled cysteine peptide fold change” value reads like this: (10 µM) -0.351; (50 µM) -0.235.

In the case of “LRRC14_Q15048_71_ELVHTWPFPLLSFQQLLQECAHCSR (UniProt Q15048)”, the “probe-labelled cysteine peptide fold change” value (10 µM) was 0.0373 and the “probe-labelled cysteine peptide fold change” value (50 µM) is -0.0707.

Consider “LIPA_P38571_209_MFFALGPVASVAFCTSPMAK (UniProt P38571)”, for which the “probe-labelled cysteine peptide fold change” value is, setting by setting: (10 µM) -0.183; (50 µM) 0.199.

With “LMO7_Q8WWI1_98_ASLENGVLLCDLINK (UniProt Q8WWI1)”, the “probe-labelled cysteine peptide fold change” value runs as follows: (10 µM) 0.553; (50 µM) 0.766.

Consider “LRRFIP1_Q32MZ4_456_CMVEVPQELETSTGHSLEK (UniProt Q32MZ4)”, for which the “probe-labelled cysteine peptide fold change” value was -0.167 (10 µM) and -0.23 (50 µM).

As for “LRRC58_Q96CX6_296_YLGSASNCPNPK (UniProt Q96CX6)”, the “probe-labelled cysteine peptide fold change” value reads like this: (10 µM) -0.199; (50 µM) -0.574.

Consider “LRRFIP1_Q32MZ4_334_DCVDIEVFPAGENTEDQK (UniProt Q32MZ4)”, for which the “probe-labelled cysteine peptide fold change” value reads like this: (10 µM) -0.00127; (50 µM) -0.00403.

Take “LRCH4_O75427_88_NRFPEVPEAACQLVSLEGLSLYHNCLR (UniProt O75427)”: the “probe-labelled cysteine peptide fold change” value by setting is: (10 µM) 0.0451; (50 µM) -0.293.

For the target “LMO7_Q8WWI1_228_DSGYGDIWCPER (UniProt Q8WWI1)”, the “probe-labelled cysteine peptide fold change” value by setting is: (10 µM) -0.221; (50 µM) -0.529.

“LETM1_O95202_552_DTAPVLEGLKEEEITKEEIDILSDACSK (UniProt O95202)”: the “probe-labelled cysteine peptide fold change” value is, setting by setting: (10 µM) 0.134; (50 µM) -0.338.

On to “LRMP_Q12912_355_SFNPLEDDDDCQIK (UniProt Q12912)”, for which the “probe-labelled cysteine peptide fold change” value was -0.278 (10 µM) and -0.0639 (50 µM).

In the case of “LONP1_P36776_909_AGVTCIVLPAENK (UniProt P36776)”, the “probe-labelled cysteine peptide fold change” value by setting is: (10 µM) 0.0996; (50 µM) 0.333.

On to “LIMS1_P48059_164_NDPYHPDHFNCANCGK (UniProt P48059)”, for which the “probe-labelled cysteine peptide fold change” value runs as follows: (10 µM) -0.0284; (50 µM) -0.215.

Consider “LIMS1_P48059_278+281_AWCVNCFACSTCNTK (UniProt P48059)”, for which the “probe-labelled cysteine peptide fold change” value was -0.00565 (10 µM) and -0.467 (50 µM).

“LSG1_Q9H089_547_LLYCHPPPGRDPVTFQHQHQR (UniProt Q9H089)”: the “probe-labelled cysteine peptide fold change” value worked out at 0.176 (10 µM) and 0.276 (50 µM).

On to “LMNB1_P20700_198_CQSLTEDLEFRK (UniProt P20700)”, for which the “probe-labelled cysteine peptide fold change” value was found to be 0.0621 (10 µM) and 0.0749 (50 µM).

In the case of “LMNB1_P20700_198_CQSLTEDLEFR (UniProt P20700)”, the “probe-labelled cysteine peptide fold change” value is, setting by setting: (10 µM) 0.000703; (50 µM) 0.468.

Consider “LRRC40_Q9H9A6_227_HLDCNSNLLETIPPELAGMESLELLYLRR (UniProt Q9H9A6)”, for which the “probe-labelled cysteine peptide fold change” value is, setting by setting: (10 µM) -0.229; (50 µM) -0.459.

As for “LRRC59_Q96AG4_131_VAGDCLDEK (UniProt Q96AG4)”, the “probe-labelled cysteine peptide fold change” value (10 µM) was found to be 0.0645 and the “probe-labelled cysteine peptide fold change” value (50 µM) was -0.227.

Consider “LRCH1_Q9Y2L9_613_VSLHEDLGAALMDGVVLCHLVNHIRPR (UniProt Q9Y2L9)”, for which the “probe-labelled cysteine peptide fold change” value is, setting by setting: (10 µM) 0.128; (50 µM) -0.0555.

As for “LRPPRC_P42704_721_AKYESDMVTGGYAALINLCCR (UniProt P42704)”, the “probe-labelled cysteine peptide fold change” value was 0.0495 (10 µM) and -0.146 (50 µM).

Take “LIG3_P49916_929_AADETLCQTK (UniProt P49916)”: the “probe-labelled cysteine peptide fold change” value (10 µM) was -0.0862 and the “probe-labelled cysteine peptide fold change” value (50 µM) is -0.203.

Consider LSM4_Q9Y4Z0_45_EVICTSR (UniProt Q9Y4Z0), for which the “probe-labelled cysteine peptide fold change” value is -0.0884 (10 µM) and -0.2 (50 µM).

As to “LETM1_O95202_330_LFEDELTLDNLTRPQLVALCK (UniProt O95202)”, the “probe-labelled cysteine peptide fold change” value (10 µM) was determined as 0.44 and the “probe-labelled cysteine peptide fold change” value (50 µM) was found to be 0.881.

For “LPCAT4_Q643R3_304_VMAQALGIPATECEFVGSLPVIVVGR (UniProt Q643R3)”, the “probe-labelled cysteine peptide fold change” value runs as follows: (10 µM) 0.439; (50 µM) 0.349.

Regarding “LRPPRC_P42704_571_YCQEPR (UniProt P42704)”, the “probe-labelled cysteine peptide fold change” value reads like this: (10 µM) 0.261; (50 µM) 0.6.

In the case of “LRPPRC_P42704_721+722_AKYESDMVTGGYAALINLCCR (UniProt P42704)”, the “probe-labelled cysteine peptide fold change” value runs as follows: (10 µM) -0.122; (50 µM) -0.366.

As to “LSM12_Q3MHD2_151_NIVVMEEVVITPPYQVENCK (UniProt Q3MHD2)”, the “probe-labelled cysteine peptide fold change” value (10 µM) is 0.101 and the “probe-labelled cysteine peptide fold change” value (50 µM) came out at 0.104.

“LIMS1_P48059_240+252_GLAYCETHYNQLFGDVCFHCNR (UniProt P48059)”: the “probe-labelled cysteine peptide fold change” value by setting is: (10 µM) 0.0277; (50 µM) 0.118.

Consider “LGALS3_P17931_173_VIVCNTK (UniProt P17931)”, for which the “probe-labelled cysteine peptide fold change” value (10 µM) came to 0.0884 and the “probe-labelled cysteine peptide fold change” value (50 µM) was -0.00184.

On to “LIN37_Q96GY3_56_DCSIAATGK (UniProt Q96GY3)”, for which the “probe-labelled cysteine peptide fold change” value by setting is: (10 µM) -0.144; (50 µM) -0.424.

With “LMAN2L_Q9H0V9_200_DGRPTELGGCTAIVR (UniProt Q9H0V9)”, the “probe-labelled cysteine peptide fold change” value by setting is: (10 µM) -0.386; (50 µM) 0.156.

For the target “LIG3_P49916_336_IFNCNPDDMAR (UniProt P49916)”, the “probe-labelled cysteine peptide fold change” value (10 µM) was -0.00595 and the “probe-labelled cysteine peptide fold change” value (50 µM) was 0.141.
